Measurements published in US8648117B2, “Methods and compositions for treating cancer metastasis” (Golden Biotechnology Corporation, priority 2012, dated 2014).
At least one compound was matched to its structure with a doubt left.

System: MDA-MB-231SA-GFP6 human breast cancer cells
Assay: Breast cancer bone metastasis model (intracardiac inoculation, 25-day study, preventive setting)
Type: in vivo
Description: The objective of this study was to test the efficacy of three different doses of the exemplary compound 1 (Antroquinonol) from Example 1 on breast cancer bone metastases in female athymic nude mice in a 25-day study in preventive setting. The following 5 experimental groups were included in the study:
The vehicle was corn oil. All groups included 15 mice that are 5 weeks of age at the beginning of the study. Based on the body weights the animals were randomized to five groups. On day 0, the animals were given intracardiac inoculation of human breast cancer cells. Body weights were determined twice a week. At sacrifice, the osteolytic lesions and whole body tumor burden were quantified by x-ray and fluorescence imaging, respectively. The test compound and vehicle were administered by oral gavage twice a day. Blood samples for analysing TRACP 5b were collected at days 0, 17 and 24. The animals were sacrificed at day 25, or earlier if they became moribund. Tissue samples were collected for histology and embedded in paraffin from left and right tibia and femur for possible future histomorphometric analyses. Gross necropsy was performed to all animals at the end of the study, and all macroscopic signs were recorded.
Test compound 1 (99%, 1005 mg/ml) was obtained in liquid form. Three 50× stock solutions were prepared in corn oil (75 mg/ml, 150 mg/ml and 225 mg/ml) and stored them in dark at +4° C. The dosing solutions of 1.5, 3.0 and 4.5 mg/ml were prepared from the stock solutions by diluting the stock solutions in corn oil 1:50. The dosing solutions were prepared once a week and stored in dark at +4° C. The dosing volume was 10 ml/kg. The test compound was administered by oral gavage twice a day with dosing intervals of 10+14 hours. The dosings were performed at the same time every day.
Zoledronic acid was used as a reference compound. 100 μl of Zometa® (Novartis Pharma GmbH, Nürnberg, Germany) 4 mg/5 ml infusion concentrate was diluted in 3.9 ml of sterile saline (0.9% NaCl) to obtain the administration concentration of 0.02 mg/ml. This solution was prepared once during the study and stored at +4° C. The dosing volume was 5 ml/kg, resulting in the dose of 0.1 mg/kg. The reference compound was administered SC twice in the study: at days 1 and 14.
Female athymic nude mice (Hsd: Athymic nude-nu) were obtained from Harlan Laboratories B.V. (Horst, The Netherlands). MDA-MB-231SA-GFP6 human breast cancer cells were received originally from Prof. Theresa Guise (Indiana University, Indianapolis, Ind., USA) and transfected with pTurboGFP-N vector (Evrogen JSC, Moscow, Russia).
This experiment utilized an animal model that closely resembles the characteristics of breast cancer metastatic disease or condition in humans. […]

[1] = serum, 0.1 mg/kg sc days 1 and 14, vs control

## COC1=C(OC)C(O)C(C/C=C(\C)CC/C=C(\C)CCC=C(C)C)C(C)C1=O (stereo not shown) [Compound 1, 4-hydroxy-2,3-dimethoxy-6-methyl-5-(3,7,11-trimethyldodeca-2,6,10-trienyl)cyclohex-2-enone]
Groups 4 and 5 (60 and 90 mg/kg/d po) compared to Group 1 (Control)
  serum TRACP 5b activity at day 24: decreased TRACP 5b activity at day 24, although not as significant as Group 2

## O=P(O)(O)C(O)(Cn1ccnc1)P(=O)(O)O [Zoledronic acid, reference compound]
serum, 0.1 mg/kg sc days 1 and 14
  TRACP 5b: decreased TRACP 5b
[1]
  TRACP 5b change at day 17: ↓***
  TRACP 5b change at day 24: ↓*
